Measured values from article PMC4391845.
The exact form of at least one protein or probe is not confirmed. For some assays here: At least one verdict was read from the data and is not stated in words by the source.

Assays:
PBX1 1-308 + PREP1 1-344 [1] = experiment: EMSA; details: 2.5 uM complex, 1:1 with DNA, 1 ug poly(dIdC), EMSA: 20 mM Tris pH 7.4, 150 mM NaCl, 5% glycerol, 1 mM DTT, 30 min at 4 C (Fig 6 legend) or 15 min after room-temperature assembly (Methods), recombinant protein, label: none (GelRed stain)
[2] = system: PBX1 full length + PREP1 full length; experiment: EMSA; details: 2.5 uM complex, 1:1 with DNA, 1 ug poly(dIdC), EMSA: 20 mM Tris pH 7.4, 150 mM NaCl, 5% glycerol, 1 mM DTT, 30 min at 4 C (Fig 6 legend) or 15 min after room-temperature assembly (Methods), recombinant protein, label: none (GelRed stain)
PBX1 1-308 + PREP1 1-344 [3] = experiment: static light scattering (SEC); details: mass of DNA-bound complex agrees with theoretical; recombinant protein; label: none (GelRed stain)

Row | Sequence | binding result (PBX1 1-308 + PREP1 1-344 [1]) | binding result [2] | binding result (PBX1 1-308 + PREP1 1-344 [3]) | binding result (PBX1 1-308 + PREP1 1-344 [1]; no second band) | binding result ([2]; second minor retarded band)
1 | TAGTGACAGAA (double strand) [O1 11 bp] | binds | binds | binds |  | 
2 | TCCTGAGGTGACAGAAGGAAG (double strand) [O1 22 bp (printed as 21 bp in Table 2)] |  |  |  | binds | binds
